Laboratory results reported in patent publication US20240075161A1.
These are yes or no findings as the source states them, for the method shown. Some binding calls cover weakened binding; strength is not graded here. Tags and fused reporters may be left off the sequences shown.

Tests used:
[1] = target: T1, CD206 on CD206-positive M2 macrophages (mouse) (mouse) (UniProt Q61830); assay: immunofluorescence of tumor, spleen and lung sections of 4T1 tumor-bearing mice after i.v. injection
T1 sequence (looked up): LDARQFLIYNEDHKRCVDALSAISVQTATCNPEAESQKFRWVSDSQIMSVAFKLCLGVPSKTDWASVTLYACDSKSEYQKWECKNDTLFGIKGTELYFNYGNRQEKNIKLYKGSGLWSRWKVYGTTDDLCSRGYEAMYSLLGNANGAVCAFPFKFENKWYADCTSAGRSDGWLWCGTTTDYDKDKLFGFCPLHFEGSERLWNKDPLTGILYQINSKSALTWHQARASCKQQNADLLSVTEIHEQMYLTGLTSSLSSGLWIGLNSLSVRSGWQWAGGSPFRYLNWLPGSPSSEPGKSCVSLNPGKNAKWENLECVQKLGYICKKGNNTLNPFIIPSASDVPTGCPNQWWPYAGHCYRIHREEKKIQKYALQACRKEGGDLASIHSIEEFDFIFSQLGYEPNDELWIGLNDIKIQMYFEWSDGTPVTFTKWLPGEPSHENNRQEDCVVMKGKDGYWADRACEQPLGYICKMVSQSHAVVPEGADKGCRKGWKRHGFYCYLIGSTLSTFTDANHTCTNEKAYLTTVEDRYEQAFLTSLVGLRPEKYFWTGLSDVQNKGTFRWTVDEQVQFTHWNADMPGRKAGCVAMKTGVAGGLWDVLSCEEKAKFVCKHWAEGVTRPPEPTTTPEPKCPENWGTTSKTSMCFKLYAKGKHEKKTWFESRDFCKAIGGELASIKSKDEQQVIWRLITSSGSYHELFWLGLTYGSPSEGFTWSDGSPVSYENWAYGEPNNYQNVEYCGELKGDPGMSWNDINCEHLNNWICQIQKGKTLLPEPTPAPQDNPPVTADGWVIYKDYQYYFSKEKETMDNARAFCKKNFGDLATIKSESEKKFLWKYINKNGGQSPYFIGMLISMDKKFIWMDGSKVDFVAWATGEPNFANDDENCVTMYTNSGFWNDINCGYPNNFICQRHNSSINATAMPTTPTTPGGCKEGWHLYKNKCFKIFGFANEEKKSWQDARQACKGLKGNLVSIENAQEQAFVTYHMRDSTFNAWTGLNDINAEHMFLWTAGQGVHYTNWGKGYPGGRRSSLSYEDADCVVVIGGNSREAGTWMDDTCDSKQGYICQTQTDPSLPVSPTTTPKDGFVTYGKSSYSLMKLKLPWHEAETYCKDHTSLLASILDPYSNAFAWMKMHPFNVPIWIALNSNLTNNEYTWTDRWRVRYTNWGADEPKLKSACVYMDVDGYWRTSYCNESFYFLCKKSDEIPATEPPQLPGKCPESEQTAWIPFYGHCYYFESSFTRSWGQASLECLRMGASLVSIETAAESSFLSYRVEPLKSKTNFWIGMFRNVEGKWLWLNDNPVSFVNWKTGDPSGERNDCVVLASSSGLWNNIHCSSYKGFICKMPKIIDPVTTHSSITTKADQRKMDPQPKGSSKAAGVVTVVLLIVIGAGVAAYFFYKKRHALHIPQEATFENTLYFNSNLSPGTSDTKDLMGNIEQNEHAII

[2] = target: T1, CD206 on CD206-positive M2 macrophages (mouse) (mouse); assay: immunofluorescence, DiI-labeled exosomes co-cultured with RAW264.7 cells

B1: Modified Lamp2b protein containing the CD206-positive M2 macrophage-targeting peptide and a C-terminal 6xHis tag, displayed on HEK293 engineered exosomes (protein, mouse)
chain: CSPGAKVRCLIVNLTDSKGTCLYAEWEMNFTITYETTNQTNKTITIAVPDKATHDGSSCGDDRNSAKIMIQFGFAVSWAVNFTKEASHYSIHDIVLSYNTSDSTVFPGAVAKGVHTVKNPENFKVPLDVIFKCNSVLTYNLTPVVQKYWGIHLQAFVQNGTVSKNEQVCEEDQTPTTVAPIIHTTAPSTTTTLTPTSTPTPTPTPTPTVGNYSIRNGNTTCLLATMGLQLNITEEKVPFIFNINPATTNFTGSCQPQSAQLRLNNSQIKYLDFIFAVKNEKRFYLKEVNVYMYLANGSAFNISNKNLSFWDAPLGSSYMCNKEQVLSVSRAFQINTFNLKVQPFNVTKGQYSTAEECAADSDLNFLIPVAVGVALGFLIIAVFISYMIGRRKSRTGYQSVHHHHHH
For B1, the binding [1] was “binds” and the binding [2] was “binds”.
